# Data published in the supplement of paper PMC3334620.
# In all, about 33,000 sequences were measured (“E-score (-0.5 to 0.5)”: median about -0.016, highest 2% from about 0.3 on). The list shows a part of the results.
# Molecular target: T1, Yer184c (UniProt P39961)
# T1 sequence: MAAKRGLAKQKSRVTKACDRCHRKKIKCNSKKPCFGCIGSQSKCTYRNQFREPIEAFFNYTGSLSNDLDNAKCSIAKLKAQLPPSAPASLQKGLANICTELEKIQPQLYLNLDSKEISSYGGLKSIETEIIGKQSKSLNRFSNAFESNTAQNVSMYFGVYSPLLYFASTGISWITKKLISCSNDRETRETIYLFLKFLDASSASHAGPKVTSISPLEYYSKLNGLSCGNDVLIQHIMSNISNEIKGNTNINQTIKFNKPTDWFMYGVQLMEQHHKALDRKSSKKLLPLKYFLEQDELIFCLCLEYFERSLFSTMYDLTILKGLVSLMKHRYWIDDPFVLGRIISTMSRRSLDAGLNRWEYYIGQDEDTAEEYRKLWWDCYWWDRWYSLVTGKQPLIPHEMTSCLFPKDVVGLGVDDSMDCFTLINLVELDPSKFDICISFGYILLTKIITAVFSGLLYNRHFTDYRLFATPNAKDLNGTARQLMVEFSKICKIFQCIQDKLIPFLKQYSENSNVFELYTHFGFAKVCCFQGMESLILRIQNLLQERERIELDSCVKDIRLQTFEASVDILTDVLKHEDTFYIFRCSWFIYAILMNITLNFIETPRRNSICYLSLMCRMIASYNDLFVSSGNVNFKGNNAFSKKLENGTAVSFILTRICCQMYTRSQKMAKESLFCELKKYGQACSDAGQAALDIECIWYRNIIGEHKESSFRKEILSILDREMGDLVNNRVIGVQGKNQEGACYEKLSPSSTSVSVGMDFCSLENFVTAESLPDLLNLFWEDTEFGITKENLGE
# Test: PBM E-score (8-mer binding enrichment) (E-score (-0.5 to 0.5)); higher = stronger / more preferred TF binding
# Conditions: protein concentration: 100 nM; construct: GST-full length
# Procedure, shortened: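 Bound GST-tagged yeast transcription factors, applied at about 100-200 nM to double-stranded universal all-10-mer Agilent arrays, were detected with fluorescent anti-GST. Scans were normalised with masliner. A modified Wilcoxon-Mann-Whitney statistic, the E-score, was assigned to each ungapped eight-base word pooled with its reverse complement by the Universal PBM Analysis Suite.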
row,Sequence,PBM E-score
1,CTCTGTCA,-0.0765
2,GGTCTGCA,-0.0184
3,ACGCTCAT,-0.196
4,CGCTACGC,-0.18
5,AAAGGGAC,-0.119
6,ATTTCGGG,0.157
7,AATTCGTG,0.0586
8,ATGCACAC,-0.0001
9,CATGATAG,-0.00316
10,CAAAGCGA,0.0362
11,CCTTGCTC,-0.141
12,CGAACTTC,0.13
13,AATACGGA,0.22
14,GGCGCCTA,-0.0826
15,CTTTGTTC,0.247
16,TAGAGCTA,-0.112
17,AACGAGAG,-0.0137
18,CCCACGGA,0.157
19,AGATTAAT,0.111
20,AAGGGTGT,-0.0275
21,ATGGTACG,0.0122
22,GGTCTCAC,-0.117

# A second format for some results above:
row	Sequence	PBM E-score
2	GGTCTGCA	-0.0184
3	ACGCTCAT	-0.196

# Remaining list, next part

row,Sequence,PBM E-score
1,AGCTGCCG,0.21
2,ACCCCAGA,-0.295
3,GTCTACAA,-0.0519
4,AGACCCAG,-0.185
5,ACCCGCCA,-0.0982
6,CTCGGACC,0.228
7,GAATAATC,0.0439
8,CAGATTAA,0.125
9,GTCTGAAA,0.0228
10,AACCGTAA,-0.004
11,CTAAGCGC,-0.0432
12,CAGCCTGC,-0.145
13,ACAAGCAA,0.111
14,AAGGACGG,-0.173
15,CGATGTAC,-0.0547
16,CCGTTCCG,0.304
17,TCCCCCAA,-0.231
18,TGGCGGAA,-0.151
19,ACCGGAAA,0.376
20,GGATTTAA,0.0782
21,CTGTGATC,-0.0104
22,AAATCTAT,0.206

row,Sequence,PBM E-score
1,GCCCATAC,-0.231
2,GATTATAC,0.162
3,ATCCCCGC,-0.0515
4,AAGCCAGG,-0.251
5,CTACTCGC,-0.0504
6,TGCTGCAA,0.0622
7,CCGACCAG,-0.0354
8,ATAGGTGA,-0.208
9,CAGAGCAA,0.108
10,CCGGAACC,0.363
11,CATGACTC,-0.19
12,CTGGTGCA,-0.177
13,GGCGTCCC,-0.199
14,ATAATCTA,0.0368
15,CGCCCTAA,-0.19
16,CAGCCAGC,-0.265
17,ATAAGACC,-0.119
18,CGCCGGAA,0.368
19,AACCTTGA,0.0783
20,ACCGGCCT,0.0901
21,CTGTCCCC,-0.285
22,GACACCAA,0.0918

# Part of the list above, reformatted.
row	Sequence	PBM E-score
12	CTGGTGCA	-0.177
13	GGCGTCCC	-0.199
14	ATAATCTA	0.0368

# Next results.

row,Sequence,PBM E-score
1,CAAGGGAA,-0.0516
2,GACTGTCA,-0.00134
3,CTTTAATC,0.141
4,CAGAAGTC,-0.209
5,TATAGCAA,0.0619
6,ACCGCGCC,-0.0646
7,CACGAAAG,0.0865
8,AGTGAACC,0.0276
9,GTCTTAAA,0.0285
10,CATACGTC,-0.0848
11,ACTTTACA,0.0527
12,TATTGGAA,0.0772
13,AGGCTCGG,0.158
14,CAGCGCAC,-0.0919
15,ATTGCCGG,0.348
16,CGCTCTAC,-0.175
17,CGGATAAA,0.417
18,CCCGACTA,-0.0136
19,GCAGGGGC,-0.218
20,AGAAACCG,0.0973
